Values from PubChem BioAssay AID1159578 (Peter MacCallum Cancer Centre, 2015).

Screen: 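Knock-downs that alter how fast lymphatic endothelial cells migrate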 (primary screen)
Cell system: human lymphatic endothelial cells
Reagents: siRNA pool against human genes, 40 nM
Timing: 48 h after transfection
Measured: 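Cells stained with dye and imaged after a scratch; covered wound area and nuclei counted, duplicates averaged, migration set against mock wells and turned into a robust z-score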
Reading the numbers: migration robust z-score: higher = faster migration into the scratch; migration relative to mock: higher = more scratch area covered than mock; nuclei per well: higher = more cells in the well
Hit rule: 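Migration changed when robust z exceeds 2 or falls below -2 and mean nuclei number is at least 3300; otherwise not called changed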
Meaning of the calls: active = migration changed; inactive = no migration change, or too few cells
Shown is a random part of about 18,000 reagents. In the full data, about 1,030 (5.7%) got an active call. 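Inactive calls also include pools with fewer than 3300 nuclei, whose migration was not assessed.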 The raw values are shown without normalisation.

no.	gene	migration robust z-score	migration class with cell-count check	migration relative to mock	nuclei per well, duplicate mean	call
1	TRPA1	-1.32	migration z between -2 and 2; enough cells	0.55	4664	inactive
2	TMEM145 (transmembrane protein 145)	2.47	migration z above 2; enough cells	1.52	7144	active
3	PRSS1 (serine protease 1)	0.08	migration z between -2 and 2; enough cells	0.82	5679	inactive
4	MRPL10 (mitochondrial ribosomal protein L10)	1.22	migration z between -2 and 2; enough cells	1.2	5918	inactive
5	SLC19A2	-0.86	migration z between -2 and 2; enough cells	0.64	4344	inactive
6	HDHD2 (haloacid dehalogenase like hydrolase domain containing 2)	-1.82	migration z between -2 and 2; enough cells	0.46	4596	inactive
7	OR5K1 (olfactory receptor family 5 subfamily K member 1)	-0.18	migration z between -2 and 2; enough cells	0.84	5816	inactive
8	FOLH1B (folate hydrolase 1B (pseudogene))	0.54	migration z between -2 and 2; enough cells	0.91	5384	inactive
9	PPP2R2B (protein phosphatase 2 regulatory subunit Bbeta)	0.08	migration z between -2 and 2; enough cells	0.82	6503	inactive
10	LAMC1 (laminin subunit gamma 1)	-1.3	migration z between -2 and 2; enough cells	0.55	5631	inactive
11	TEX264 (testis expressed 264, ER-phagy receptor)	1.06	migration z between -2 and 2; enough cells	1.16	7045	inactive
12	ACY3 (aminoacylase 3)	-1.1	migration z between -2 and 2; enough cells	0.6	7026	inactive
13	R3HDM4 (R3H domain containing 4)	-1.03	migration z between -2 and 2; enough cells	0.62	6184	inactive

Targets above whose gene name starts with T or t (3):
gene	migration robust z-score	migration class with cell-count check	migration relative to mock	nuclei per well, duplicate mean	call
TRPA1	-1.32	migration z between -2 and 2; enough cells	0.55	4664	inactive
TMEM145 (transmembrane protein 145)	2.47	migration z above 2; enough cells	1.52	7144	active
TEX264 (testis expressed 264, ER-phagy receptor)	1.06	migration z between -2 and 2; enough cells	1.16	7045	inactive

Additional reagents follow.
no.	gene	migration robust z-score	migration class with cell-count check	migration relative to mock	nuclei per well, duplicate mean	call
14	GPC4 (glypican 4)	-1.14	migration z between -2 and 2; enough cells	0.58	5966	inactive
15	GLMN (glomulin)	-0.02	migration z between -2 and 2; enough cells	0.88	6340	inactive
16	OR2A25 (olfactory receptor family 2 subfamily A member 25)	1.59	migration z between -2 and 2; enough cells	1.3	6302	inactive
17	CKMT1A (creatine kinase, mitochondrial 1A)	1.22	migration z between -2 and 2; enough cells	1.21	6030	inactive
18	PARP15 (poly(ADP-ribose) polymerase family member 15)	-1.19	migration z between -2 and 2; enough cells	0.58	6012	inactive
19	MEP1A (meprin A subunit alpha)	0.68	migration z between -2 and 2; enough cells	0.94	6936	inactive
20	EVX2 (even-skipped homeobox 2)	-2.82	migration z below -2; enough cells	0.17	4508	active
21	IFNAR2 (interferon alpha and beta receptor subunit 2)	0.44	migration z between -2 and 2; enough cells	0.89	6337	inactive
22	FNDC1 (fibronectin type III domain containing 1)	-0.75	migration z between -2 and 2; enough cells	0.7	5362	inactive
23	GARRE1 (granule associated Rac and RHOG effector 1)	-0.18	migration z between -2 and 2; enough cells	0.84	4025	inactive
